# Measurements published in the supplement of paper PMC12595434, “Development of retinoid nuclear receptor pathway antagonists through targeting aldehyde dehydrogenase 1A3” (iScience, 2025).
# The chains behind the UniProt entries cited, without tags or fusion partners. Where a name states a change or a piece, a line headed by the entry shows the natural chain unless it says otherwise.
# UniProt O00148, whole entry: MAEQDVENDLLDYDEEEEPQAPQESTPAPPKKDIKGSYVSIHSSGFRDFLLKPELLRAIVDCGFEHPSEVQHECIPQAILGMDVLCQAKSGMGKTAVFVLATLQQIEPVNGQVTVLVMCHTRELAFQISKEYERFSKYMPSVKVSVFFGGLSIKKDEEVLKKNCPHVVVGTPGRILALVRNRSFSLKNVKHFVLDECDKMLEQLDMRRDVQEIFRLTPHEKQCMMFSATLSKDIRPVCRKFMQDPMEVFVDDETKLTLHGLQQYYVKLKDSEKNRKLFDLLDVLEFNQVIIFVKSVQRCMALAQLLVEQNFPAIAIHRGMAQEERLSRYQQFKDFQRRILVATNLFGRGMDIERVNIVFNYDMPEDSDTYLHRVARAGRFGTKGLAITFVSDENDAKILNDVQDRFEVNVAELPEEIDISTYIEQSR
# UniProt O00767: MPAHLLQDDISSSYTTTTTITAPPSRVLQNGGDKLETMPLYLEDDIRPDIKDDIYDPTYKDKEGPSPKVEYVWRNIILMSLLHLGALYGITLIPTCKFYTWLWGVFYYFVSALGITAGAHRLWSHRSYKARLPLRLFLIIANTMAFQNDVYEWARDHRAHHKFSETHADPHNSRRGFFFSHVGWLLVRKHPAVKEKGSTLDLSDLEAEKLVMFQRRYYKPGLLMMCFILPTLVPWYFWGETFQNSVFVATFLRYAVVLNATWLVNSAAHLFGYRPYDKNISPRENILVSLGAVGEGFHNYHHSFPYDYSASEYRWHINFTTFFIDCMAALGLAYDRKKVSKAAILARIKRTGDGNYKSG
# UniProt O14617: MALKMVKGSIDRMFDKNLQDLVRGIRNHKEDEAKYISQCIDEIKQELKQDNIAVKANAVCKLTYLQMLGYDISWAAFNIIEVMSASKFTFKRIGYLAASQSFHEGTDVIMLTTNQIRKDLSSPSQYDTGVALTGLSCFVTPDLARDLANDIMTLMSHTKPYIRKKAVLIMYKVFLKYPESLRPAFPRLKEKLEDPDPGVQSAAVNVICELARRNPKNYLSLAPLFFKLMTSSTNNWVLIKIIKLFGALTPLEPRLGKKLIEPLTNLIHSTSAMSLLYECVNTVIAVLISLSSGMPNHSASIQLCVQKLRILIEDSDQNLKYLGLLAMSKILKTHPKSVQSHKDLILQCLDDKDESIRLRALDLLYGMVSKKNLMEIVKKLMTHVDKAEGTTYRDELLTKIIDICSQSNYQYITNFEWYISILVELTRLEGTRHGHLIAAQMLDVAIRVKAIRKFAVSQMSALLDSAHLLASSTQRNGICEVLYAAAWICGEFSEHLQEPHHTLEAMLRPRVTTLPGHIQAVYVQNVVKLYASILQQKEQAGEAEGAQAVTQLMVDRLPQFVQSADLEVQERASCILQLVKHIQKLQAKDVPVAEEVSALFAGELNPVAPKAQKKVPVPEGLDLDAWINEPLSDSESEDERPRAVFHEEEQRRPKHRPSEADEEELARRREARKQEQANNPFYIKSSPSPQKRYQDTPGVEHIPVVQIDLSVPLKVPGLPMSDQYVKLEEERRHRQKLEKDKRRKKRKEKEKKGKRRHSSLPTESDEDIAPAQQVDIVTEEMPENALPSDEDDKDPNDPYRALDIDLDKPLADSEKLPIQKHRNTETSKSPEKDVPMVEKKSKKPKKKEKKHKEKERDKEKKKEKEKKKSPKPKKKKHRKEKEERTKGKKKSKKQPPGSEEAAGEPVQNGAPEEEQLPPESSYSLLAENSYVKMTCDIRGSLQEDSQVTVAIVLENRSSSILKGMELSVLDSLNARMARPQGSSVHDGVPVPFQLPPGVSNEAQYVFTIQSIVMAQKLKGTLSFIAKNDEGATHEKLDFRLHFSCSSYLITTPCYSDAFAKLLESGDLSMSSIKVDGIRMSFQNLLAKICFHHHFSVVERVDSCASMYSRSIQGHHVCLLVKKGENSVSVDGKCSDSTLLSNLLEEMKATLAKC
# UniProt A6ND36: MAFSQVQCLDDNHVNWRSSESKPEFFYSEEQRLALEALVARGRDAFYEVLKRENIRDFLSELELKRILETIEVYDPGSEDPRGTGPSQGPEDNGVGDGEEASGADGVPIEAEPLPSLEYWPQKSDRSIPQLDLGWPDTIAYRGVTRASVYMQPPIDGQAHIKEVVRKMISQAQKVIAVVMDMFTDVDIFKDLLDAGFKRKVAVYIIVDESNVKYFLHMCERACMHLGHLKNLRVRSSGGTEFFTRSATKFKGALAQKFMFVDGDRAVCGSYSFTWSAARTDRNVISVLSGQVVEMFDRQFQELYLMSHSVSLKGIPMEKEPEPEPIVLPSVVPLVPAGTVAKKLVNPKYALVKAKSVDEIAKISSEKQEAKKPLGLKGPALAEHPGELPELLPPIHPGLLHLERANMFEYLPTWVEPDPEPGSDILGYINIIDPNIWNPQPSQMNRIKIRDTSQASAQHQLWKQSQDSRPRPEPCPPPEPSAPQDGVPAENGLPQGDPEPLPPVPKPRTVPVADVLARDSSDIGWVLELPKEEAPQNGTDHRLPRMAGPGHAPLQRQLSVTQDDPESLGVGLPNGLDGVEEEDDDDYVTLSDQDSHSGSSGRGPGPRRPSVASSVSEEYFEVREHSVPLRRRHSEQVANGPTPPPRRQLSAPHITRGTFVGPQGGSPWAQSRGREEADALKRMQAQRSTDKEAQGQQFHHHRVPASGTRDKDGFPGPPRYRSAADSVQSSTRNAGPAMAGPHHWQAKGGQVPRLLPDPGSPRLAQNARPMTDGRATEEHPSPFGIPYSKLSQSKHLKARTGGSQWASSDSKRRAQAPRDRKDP
# UniProt A7KAX9: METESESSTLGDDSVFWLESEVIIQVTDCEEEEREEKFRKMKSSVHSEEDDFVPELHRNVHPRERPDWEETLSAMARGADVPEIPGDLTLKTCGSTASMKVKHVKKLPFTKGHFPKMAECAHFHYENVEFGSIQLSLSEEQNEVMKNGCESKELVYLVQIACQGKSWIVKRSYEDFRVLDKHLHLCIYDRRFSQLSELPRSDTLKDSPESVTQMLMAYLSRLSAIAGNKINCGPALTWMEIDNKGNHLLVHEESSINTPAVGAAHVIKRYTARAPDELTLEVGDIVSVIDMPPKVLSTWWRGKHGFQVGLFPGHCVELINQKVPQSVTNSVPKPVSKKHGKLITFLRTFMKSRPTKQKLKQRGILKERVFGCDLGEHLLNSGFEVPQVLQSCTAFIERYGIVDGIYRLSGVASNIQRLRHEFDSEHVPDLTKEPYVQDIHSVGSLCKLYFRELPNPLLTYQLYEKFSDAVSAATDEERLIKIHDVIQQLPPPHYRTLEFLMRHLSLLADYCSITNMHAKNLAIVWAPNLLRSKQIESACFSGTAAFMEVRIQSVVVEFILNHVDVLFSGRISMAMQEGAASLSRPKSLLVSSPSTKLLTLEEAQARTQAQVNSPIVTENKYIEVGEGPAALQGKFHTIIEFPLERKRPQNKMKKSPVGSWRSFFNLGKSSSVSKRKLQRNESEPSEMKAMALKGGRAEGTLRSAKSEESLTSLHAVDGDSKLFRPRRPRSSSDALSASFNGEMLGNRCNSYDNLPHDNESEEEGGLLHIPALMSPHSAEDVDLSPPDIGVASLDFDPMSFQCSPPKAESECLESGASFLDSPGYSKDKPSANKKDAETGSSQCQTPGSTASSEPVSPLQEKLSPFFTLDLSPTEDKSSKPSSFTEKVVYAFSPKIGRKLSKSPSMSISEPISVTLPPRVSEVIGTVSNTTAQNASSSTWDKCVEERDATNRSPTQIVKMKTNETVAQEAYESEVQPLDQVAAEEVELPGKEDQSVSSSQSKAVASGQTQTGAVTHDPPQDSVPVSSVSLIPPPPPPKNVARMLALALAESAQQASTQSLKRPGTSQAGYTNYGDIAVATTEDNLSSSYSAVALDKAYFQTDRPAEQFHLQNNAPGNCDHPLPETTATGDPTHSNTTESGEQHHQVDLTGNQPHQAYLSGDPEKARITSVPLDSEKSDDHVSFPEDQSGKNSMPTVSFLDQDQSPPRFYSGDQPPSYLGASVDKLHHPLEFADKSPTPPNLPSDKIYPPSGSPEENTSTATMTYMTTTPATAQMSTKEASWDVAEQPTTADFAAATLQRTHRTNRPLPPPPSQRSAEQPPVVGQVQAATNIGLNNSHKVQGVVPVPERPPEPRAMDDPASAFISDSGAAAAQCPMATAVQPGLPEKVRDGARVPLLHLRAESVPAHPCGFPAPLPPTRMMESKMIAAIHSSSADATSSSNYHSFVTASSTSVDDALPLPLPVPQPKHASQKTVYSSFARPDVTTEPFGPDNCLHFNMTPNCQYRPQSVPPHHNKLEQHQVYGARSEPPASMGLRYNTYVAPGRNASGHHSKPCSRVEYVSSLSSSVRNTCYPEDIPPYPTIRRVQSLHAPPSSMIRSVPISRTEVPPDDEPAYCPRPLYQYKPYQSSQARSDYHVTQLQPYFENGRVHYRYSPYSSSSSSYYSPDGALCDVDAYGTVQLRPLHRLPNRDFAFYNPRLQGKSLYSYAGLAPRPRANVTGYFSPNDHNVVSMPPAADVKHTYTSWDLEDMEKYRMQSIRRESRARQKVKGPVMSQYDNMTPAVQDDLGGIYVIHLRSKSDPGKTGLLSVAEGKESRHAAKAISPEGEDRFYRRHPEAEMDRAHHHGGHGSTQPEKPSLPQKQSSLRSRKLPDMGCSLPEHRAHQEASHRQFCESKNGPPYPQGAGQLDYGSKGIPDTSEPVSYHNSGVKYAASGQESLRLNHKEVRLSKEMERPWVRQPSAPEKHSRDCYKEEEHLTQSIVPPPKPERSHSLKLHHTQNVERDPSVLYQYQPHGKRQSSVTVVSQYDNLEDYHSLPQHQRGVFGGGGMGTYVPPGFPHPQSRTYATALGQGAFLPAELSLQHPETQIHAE
# UniProt O00160: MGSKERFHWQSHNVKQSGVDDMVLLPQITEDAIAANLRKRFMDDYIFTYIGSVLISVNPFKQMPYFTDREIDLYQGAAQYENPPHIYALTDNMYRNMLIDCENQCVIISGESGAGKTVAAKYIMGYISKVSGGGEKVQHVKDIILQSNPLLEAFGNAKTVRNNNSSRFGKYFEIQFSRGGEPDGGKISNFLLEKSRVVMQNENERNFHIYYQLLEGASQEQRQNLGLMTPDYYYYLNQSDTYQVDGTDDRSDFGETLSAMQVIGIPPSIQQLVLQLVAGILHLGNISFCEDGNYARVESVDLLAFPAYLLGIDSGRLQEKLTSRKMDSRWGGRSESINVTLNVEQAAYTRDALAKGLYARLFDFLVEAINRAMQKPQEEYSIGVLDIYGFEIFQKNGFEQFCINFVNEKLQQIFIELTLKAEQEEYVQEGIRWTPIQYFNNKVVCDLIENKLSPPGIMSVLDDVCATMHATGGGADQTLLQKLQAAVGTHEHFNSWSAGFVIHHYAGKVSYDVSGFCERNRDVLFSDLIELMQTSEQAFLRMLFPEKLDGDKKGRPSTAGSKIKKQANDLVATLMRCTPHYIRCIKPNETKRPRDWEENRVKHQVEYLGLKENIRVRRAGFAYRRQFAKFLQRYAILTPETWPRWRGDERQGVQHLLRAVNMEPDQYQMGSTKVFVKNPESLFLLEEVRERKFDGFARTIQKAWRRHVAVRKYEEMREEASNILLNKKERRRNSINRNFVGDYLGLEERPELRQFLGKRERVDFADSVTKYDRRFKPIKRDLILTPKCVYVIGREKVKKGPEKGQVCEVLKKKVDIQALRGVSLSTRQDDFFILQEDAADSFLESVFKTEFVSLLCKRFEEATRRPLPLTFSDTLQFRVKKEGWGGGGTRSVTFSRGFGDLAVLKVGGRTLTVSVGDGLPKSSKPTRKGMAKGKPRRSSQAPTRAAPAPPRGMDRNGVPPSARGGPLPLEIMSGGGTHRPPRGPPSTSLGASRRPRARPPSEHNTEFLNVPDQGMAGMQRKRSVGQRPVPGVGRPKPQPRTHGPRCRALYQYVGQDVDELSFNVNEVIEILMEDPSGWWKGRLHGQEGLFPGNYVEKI
# UniProt O00255, whole entry: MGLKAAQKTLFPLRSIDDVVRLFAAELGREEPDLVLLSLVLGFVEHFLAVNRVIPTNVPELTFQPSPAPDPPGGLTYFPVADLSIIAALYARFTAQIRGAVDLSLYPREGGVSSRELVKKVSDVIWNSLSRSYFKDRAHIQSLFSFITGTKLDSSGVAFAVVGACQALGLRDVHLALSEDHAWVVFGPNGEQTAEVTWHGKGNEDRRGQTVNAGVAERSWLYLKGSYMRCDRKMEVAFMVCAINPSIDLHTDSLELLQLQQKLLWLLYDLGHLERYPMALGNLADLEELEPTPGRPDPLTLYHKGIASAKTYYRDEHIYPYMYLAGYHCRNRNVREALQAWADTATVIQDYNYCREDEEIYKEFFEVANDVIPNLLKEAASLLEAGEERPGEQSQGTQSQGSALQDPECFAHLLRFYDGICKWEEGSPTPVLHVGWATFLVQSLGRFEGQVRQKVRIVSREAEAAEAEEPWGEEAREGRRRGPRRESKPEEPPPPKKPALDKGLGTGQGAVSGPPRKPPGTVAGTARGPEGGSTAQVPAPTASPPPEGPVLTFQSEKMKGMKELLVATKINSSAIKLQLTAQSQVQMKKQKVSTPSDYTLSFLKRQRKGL
# This is one part of the list. The data scatter; read single values as rough.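 Many melting curves are irregular; where none melted, Tm was taken as 64 °C.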
# Compound: CCc1cnccc1C(=O)Nc1cc2c(cc1F)NC(=O)CC2
# Assay: melting temperature shift (DMSO Tm minus MBE1-treated Tm) in cellular thermal proteome profiling; higher = less thermal stabilization by MBE1 (negative = stabilized by MBE1)
# Details: A375
Target,melting temperature shift (MBE1 concentration: 100 nM) [°C],melting temperature shift (MBE1 concentration: 1 uM) [°C]
DDX39A (UniProt O00148),-0.654,-0.226
UniProt O14933,0.361,-0.995
CASK (UniProt O14936),-0.483,0.171
TRAPPC13 (UniProt A5PLN9),-0.25,0.0305
MID1 (UniProt O15344),0.153,0.171
SCD (UniProt O00767),-0.543,-4.32
AP3D1 (UniProt O14617),1.04,0.537
GTPBP1 (UniProt O00178),1.22,0.421
FAM83G (UniProt A6ND36),-3.72,-0.195
UniProt A8MWD9,0.507,-2.22
B4GALT5 (UniProt O43286),-0.969,0.397
POM121C (UniProt A8CG34),1.06,1.32
UniProt A7KAX9,-1.58,-0.434
SAP18 (UniProt O00422),3.83,2.38
UniProt L0R819,0,0
PIK3R2 (UniProt O00459),0.348,0.0244
UniProt O00160,0.513,0.305
SMCHD1 (UniProt A6NHR9),-0.365,-0.308
UniProt O15015,-5.51,-0.116
PGRMC2 (UniProt O15173),-0.912,-0.114
XPO1 (UniProt O14980),0.244,0
UNC13B (UniProt O14795),-1.26,-0.147
PPIP5K2 (UniProt O43314),-0.845,0.0604
CHD1 (UniProt O14646),-0.0384,-0.574
UniProt O00255,-0.256,0.0384
SEC16A (UniProt O15027),-0.79,0.16

# Single records, as listed above:
# UniProt L0R819 is entered as melting temperature shift (MBE1 concentration: 100 nM) [°C]: 0; melting temperature shift (MBE1 concentration: 1 uM) [°C]: 0
# TRAPPC13 (UniProt A5PLN9) is entered as melting temperature shift (MBE1 concentration: 100 nM) [°C]: -0.25; melting temperature shift (MBE1 concentration: 1 uM) [°C]: 0.0305
